Some of the results follow.

Sequences of proteins named here, by UniProt entry; tags and fusion partners are left off. A change or cut given only in a name is not applied to a line headed by its entry.
UniProt Q15043: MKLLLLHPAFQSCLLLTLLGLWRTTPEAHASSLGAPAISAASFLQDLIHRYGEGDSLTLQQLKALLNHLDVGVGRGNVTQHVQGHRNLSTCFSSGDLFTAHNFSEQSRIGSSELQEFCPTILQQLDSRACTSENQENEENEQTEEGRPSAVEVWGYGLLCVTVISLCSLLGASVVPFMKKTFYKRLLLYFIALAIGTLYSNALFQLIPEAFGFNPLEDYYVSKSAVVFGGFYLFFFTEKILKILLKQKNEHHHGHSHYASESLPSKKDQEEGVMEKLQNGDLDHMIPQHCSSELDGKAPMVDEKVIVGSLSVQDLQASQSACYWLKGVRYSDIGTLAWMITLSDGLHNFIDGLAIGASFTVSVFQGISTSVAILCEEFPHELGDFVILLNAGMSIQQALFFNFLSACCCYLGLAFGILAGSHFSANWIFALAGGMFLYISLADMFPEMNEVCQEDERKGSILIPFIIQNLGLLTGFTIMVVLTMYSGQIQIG
UniProt Q9UGH3: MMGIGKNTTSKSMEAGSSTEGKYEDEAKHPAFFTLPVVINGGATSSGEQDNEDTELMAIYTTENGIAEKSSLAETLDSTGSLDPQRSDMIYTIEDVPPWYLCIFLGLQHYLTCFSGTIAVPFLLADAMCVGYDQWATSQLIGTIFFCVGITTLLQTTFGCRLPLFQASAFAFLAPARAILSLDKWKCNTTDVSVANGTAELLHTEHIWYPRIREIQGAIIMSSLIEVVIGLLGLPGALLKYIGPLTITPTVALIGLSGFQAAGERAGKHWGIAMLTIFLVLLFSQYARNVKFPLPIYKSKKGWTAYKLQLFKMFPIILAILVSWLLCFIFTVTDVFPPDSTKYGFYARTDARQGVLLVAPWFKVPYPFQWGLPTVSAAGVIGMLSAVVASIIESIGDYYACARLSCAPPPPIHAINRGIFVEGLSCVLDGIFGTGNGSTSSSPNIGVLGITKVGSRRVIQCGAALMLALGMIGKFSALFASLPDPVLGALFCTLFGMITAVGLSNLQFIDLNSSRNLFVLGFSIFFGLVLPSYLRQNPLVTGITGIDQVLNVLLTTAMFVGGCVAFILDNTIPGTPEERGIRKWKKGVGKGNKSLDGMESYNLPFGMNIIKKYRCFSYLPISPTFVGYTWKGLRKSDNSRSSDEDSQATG
UniProt Q15393: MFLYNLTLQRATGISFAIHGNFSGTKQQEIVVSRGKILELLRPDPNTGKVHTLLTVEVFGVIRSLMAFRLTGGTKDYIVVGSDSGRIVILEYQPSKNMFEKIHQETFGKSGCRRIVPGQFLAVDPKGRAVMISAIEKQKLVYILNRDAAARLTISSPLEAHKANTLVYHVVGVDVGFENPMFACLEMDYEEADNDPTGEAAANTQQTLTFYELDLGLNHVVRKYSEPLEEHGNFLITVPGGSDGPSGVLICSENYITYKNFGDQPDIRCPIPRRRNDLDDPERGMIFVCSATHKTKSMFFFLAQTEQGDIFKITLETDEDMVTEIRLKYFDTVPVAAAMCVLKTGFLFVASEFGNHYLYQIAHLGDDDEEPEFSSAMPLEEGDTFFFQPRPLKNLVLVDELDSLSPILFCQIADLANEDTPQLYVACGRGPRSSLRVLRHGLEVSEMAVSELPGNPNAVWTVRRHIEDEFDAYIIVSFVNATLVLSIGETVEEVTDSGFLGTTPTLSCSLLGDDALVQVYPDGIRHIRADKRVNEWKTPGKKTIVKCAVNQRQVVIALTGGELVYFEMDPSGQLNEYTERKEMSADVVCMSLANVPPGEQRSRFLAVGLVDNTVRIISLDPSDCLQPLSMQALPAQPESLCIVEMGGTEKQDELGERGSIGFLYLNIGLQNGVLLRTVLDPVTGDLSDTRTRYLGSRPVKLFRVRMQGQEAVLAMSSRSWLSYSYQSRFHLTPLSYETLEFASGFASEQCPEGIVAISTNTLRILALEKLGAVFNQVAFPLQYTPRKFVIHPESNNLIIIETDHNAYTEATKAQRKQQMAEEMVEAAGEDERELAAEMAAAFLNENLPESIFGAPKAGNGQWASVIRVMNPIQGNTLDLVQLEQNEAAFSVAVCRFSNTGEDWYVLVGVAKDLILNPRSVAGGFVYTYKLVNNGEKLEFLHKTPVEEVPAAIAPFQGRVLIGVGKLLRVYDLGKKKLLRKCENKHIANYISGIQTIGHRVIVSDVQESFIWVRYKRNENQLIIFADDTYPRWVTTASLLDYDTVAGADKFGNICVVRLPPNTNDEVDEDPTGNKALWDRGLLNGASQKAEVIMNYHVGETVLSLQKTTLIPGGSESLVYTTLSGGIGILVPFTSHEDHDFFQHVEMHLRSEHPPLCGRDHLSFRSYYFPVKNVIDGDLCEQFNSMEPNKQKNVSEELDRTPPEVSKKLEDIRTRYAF
UniProt Q70HW3: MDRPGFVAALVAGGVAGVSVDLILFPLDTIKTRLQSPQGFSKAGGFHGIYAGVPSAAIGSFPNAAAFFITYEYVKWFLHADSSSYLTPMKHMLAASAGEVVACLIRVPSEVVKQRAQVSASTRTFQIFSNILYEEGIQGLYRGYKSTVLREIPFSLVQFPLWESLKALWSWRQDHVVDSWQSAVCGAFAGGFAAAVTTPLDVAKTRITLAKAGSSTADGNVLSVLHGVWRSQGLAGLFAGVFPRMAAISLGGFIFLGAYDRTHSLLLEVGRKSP
UniProt Q9NQG6: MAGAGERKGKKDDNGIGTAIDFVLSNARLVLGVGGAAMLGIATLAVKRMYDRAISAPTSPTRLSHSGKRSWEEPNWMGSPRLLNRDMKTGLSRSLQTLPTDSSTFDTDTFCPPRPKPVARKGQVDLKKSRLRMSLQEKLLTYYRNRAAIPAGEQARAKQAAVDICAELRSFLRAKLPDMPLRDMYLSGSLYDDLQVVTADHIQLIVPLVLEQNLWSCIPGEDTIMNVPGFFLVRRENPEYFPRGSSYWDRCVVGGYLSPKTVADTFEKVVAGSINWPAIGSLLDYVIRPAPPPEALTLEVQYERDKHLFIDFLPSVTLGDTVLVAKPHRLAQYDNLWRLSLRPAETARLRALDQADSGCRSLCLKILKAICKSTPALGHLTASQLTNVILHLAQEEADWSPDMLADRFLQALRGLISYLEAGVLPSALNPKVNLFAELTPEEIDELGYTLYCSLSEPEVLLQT
UniProt O43808: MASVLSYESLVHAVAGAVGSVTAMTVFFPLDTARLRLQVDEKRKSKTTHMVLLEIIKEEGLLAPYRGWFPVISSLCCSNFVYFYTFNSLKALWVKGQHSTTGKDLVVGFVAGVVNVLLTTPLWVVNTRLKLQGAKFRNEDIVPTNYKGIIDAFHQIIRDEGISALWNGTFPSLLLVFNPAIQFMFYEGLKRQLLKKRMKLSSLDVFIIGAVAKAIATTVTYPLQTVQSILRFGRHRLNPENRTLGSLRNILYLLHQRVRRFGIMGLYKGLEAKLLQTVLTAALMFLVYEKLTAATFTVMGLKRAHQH
UniProt Q8WU79: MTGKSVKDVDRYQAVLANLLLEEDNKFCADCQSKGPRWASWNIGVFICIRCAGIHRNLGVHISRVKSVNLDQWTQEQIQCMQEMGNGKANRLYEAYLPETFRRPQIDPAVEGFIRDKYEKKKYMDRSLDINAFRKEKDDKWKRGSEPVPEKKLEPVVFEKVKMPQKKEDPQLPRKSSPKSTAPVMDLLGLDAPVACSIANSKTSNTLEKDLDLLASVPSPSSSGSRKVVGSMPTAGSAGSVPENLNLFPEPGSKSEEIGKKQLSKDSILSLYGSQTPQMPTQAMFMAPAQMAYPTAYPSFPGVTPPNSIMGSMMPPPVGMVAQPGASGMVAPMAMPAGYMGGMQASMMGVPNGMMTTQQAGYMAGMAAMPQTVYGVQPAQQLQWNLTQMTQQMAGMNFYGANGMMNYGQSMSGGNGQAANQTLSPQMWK
UniProt P00441, whole entry: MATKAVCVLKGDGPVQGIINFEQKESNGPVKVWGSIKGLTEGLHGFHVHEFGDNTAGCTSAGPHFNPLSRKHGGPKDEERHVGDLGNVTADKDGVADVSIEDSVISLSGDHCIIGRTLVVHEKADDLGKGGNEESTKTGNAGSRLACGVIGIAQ
UniProt Q6KCM7: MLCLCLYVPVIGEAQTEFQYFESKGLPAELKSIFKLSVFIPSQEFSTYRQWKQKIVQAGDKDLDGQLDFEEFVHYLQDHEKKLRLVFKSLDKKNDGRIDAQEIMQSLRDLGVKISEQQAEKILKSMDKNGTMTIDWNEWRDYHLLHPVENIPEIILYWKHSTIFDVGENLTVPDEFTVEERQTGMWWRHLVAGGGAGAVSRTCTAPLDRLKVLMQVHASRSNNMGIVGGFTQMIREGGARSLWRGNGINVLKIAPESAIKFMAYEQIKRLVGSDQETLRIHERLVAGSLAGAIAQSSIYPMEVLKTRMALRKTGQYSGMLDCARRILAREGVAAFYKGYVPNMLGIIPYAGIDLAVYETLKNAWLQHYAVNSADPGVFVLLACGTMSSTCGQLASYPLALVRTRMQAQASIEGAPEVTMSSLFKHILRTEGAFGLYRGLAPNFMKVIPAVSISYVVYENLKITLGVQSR
UniProt Q9NTG7: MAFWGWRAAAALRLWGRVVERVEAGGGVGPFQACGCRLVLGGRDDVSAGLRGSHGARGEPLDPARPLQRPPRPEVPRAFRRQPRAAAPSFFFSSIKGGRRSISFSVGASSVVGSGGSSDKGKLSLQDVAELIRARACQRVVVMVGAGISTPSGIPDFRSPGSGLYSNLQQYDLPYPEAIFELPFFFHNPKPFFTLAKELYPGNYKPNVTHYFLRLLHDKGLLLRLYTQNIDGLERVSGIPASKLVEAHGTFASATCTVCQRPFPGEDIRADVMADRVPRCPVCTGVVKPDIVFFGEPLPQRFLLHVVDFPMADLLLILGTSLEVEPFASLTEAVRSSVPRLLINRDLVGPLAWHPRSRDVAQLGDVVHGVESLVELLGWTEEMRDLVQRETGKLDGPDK
UniProt Q96K37: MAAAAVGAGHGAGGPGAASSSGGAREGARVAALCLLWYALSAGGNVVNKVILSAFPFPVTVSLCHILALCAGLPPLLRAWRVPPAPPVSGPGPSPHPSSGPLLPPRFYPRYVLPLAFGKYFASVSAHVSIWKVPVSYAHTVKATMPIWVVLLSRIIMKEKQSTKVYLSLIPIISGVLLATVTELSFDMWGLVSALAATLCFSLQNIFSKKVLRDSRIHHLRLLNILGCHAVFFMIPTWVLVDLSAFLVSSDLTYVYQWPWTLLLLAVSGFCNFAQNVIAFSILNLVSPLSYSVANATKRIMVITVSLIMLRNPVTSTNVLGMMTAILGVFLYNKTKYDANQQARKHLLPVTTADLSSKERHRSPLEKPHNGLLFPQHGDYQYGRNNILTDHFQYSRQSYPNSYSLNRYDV
UniProt O95721: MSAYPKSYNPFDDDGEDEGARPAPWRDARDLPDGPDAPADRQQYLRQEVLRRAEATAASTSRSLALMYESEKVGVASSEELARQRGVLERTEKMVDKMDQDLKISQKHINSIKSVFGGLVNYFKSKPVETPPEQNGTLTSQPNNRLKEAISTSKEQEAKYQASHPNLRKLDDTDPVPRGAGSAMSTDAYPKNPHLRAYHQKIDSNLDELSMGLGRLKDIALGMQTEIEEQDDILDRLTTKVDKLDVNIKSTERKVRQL
UniProt P34896: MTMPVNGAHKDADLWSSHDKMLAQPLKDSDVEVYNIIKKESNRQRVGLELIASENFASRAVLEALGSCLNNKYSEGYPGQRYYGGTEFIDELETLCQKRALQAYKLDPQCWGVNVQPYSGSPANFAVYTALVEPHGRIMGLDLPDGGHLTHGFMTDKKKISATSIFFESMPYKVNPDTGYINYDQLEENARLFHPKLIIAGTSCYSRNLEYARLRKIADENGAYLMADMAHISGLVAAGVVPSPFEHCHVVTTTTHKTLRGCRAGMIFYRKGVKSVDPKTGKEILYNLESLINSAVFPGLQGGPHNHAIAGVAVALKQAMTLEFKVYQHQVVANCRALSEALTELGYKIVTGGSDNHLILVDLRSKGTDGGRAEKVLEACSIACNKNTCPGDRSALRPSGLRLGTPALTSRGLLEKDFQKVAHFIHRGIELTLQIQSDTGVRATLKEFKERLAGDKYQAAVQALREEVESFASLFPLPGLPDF
UniProt Q14493, whole entry, looked up: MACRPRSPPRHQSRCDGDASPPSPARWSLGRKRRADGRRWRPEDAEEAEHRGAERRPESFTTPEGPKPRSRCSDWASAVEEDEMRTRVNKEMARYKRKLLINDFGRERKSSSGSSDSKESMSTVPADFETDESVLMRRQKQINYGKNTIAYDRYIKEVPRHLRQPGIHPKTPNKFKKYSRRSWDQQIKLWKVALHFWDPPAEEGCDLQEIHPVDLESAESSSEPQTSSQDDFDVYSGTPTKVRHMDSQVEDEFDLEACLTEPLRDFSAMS
UniProt P62318, whole entry: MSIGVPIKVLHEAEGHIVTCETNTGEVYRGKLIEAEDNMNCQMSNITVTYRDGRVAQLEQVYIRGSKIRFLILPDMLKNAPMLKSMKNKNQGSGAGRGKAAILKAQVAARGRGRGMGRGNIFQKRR
UniProt P09234, whole entry: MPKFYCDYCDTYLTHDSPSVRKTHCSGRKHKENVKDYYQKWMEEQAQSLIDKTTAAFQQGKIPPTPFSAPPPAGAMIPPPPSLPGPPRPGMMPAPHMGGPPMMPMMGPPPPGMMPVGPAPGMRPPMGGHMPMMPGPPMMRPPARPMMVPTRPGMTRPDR

Compound in the experiment: COc1ccc(Cn2ccc3cc(C)c(C(=O)NO)cc32)cc1
The experiment is described as follows: dose-dependent thermal stabilisation call (2D-TPP, DLPTP, 10% FDR) (binary (1 = stabilised)); higher = stabilised by the compound. The note with it: system: HL-60 intact cells; concentration range 0.04-10 µM. On the procedure: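 2D thermal proteome profiling in intact HL-60 cells treated with BRD-3811 (0, 0.04, 0.29, 2, 10 uM) for 90 min at 37 C, then heated 3 min at one of 12 temperatures (42-63.9 C). Soluble protein was quantified by TMT10 MS. The value is the DLPTP call of the paper: dose-dependent thermal stabilisation over all temperatures at 10% FDR (F-test of a dose-response against a flat model); one experiment, one call per tested protein.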
Regarding SLC39A14 (UniProt Q15043), the “dose-dependent thermal stabilisation call” value is inactive: 0.
With SNF8 (UniProt Q96H20) the figure was inactive: 0; with SLC23A2 (UniProt Q9UGH3), inactive: 0; with SIPA1 (UniProt Q96FS4), inactive: 0.
Under SERPINB10 (UniProt P48595) stands inactive: 0; under SF3B3 (UniProt Q15393), inactive: 0; under SMCR8 (UniProt Q8TEV9), inactive: 0.
Under SMAP1 (UniProt Q8IYB5) stands inactive: 0; under SLC38A2 (UniProt Q96QD8), inactive: 0; under SLC7A11 (UniProt Q9UPY5), inactive: 0.
As for SNRPE (UniProt P62304), the “dose-dependent thermal stabilisation call” value is inactive: 0.
Under SLC6A9 (UniProt P48067) stands inactive: 0.
On to SNX11 (UniProt Q9Y5W9), for which the “dose-dependent thermal stabilisation call” value is inactive: 0.
With SLC25A26 (UniProt Q70HW3) the figure was inactive: 0; with SMCR7L (UniProt Q9NQG6), inactive: 0; with SLC25A17 (UniProt O43808), inactive: 0.
Under SMAP2 (UniProt Q8WU79) stands inactive: 0; under SOD1 (UniProt P00441), inactive: 0; under SLC27A2 (UniProt O14975), inactive: 0.
Under SLC7A6OS (UniProt Q96CW6) stands inactive: 0; under SLC30A1 (UniProt Q9Y6M5), inactive: 0; under SLC25A25 (UniProt Q6KCM7), inactive: 0.
Take SIRT3 (UniProt Q9NTG7): the “dose-dependent thermal stabilisation call” value was inactive: 0.
Under SFRS6 (UniProt Q13247) stands inactive: 0.
For SLC35E1 (UniProt Q96K37), the “dose-dependent thermal stabilisation call” value was inactive: 0.
Under SNAP29 (UniProt O95721) stands inactive: 0.
With SHMT1 (UniProt P34896) the figure was inactive: 0; with SLBP (UniProt Q14493), inactive: 0.
Under SNRPD3 (UniProt P62318) stands inactive: 0.
Regarding SNRPB (UniProt P14678), the “dose-dependent thermal stabilisation call” value was inactive: 0.
With SLC12A6 (UniProt Q9UHW9) the figure was inactive: 0; with SIP1, inactive: 0.
With SNAPC5 (UniProt O75971) the figure was inactive: 0.
With SHKBP1 (UniProt Q8TBC3) the figure was inactive: 0; with SNRPC (UniProt P09234), inactive: 0.

For the origin of these results see the supplement of paper PMC7666118.
